According to patent US20240026024A1 (SHANGHAI HUAOTA BIOPHARMACEUTICAL, published 2024):
No constants are given. Whether binding was seen depends on the method and setting. Some results given as binding are weak or reduced against the parent protein; the word gives no strength.

T1: CD73 (construct not stated) (Homo sapiens (Human)) (UniProt P21589)
T1 sequence: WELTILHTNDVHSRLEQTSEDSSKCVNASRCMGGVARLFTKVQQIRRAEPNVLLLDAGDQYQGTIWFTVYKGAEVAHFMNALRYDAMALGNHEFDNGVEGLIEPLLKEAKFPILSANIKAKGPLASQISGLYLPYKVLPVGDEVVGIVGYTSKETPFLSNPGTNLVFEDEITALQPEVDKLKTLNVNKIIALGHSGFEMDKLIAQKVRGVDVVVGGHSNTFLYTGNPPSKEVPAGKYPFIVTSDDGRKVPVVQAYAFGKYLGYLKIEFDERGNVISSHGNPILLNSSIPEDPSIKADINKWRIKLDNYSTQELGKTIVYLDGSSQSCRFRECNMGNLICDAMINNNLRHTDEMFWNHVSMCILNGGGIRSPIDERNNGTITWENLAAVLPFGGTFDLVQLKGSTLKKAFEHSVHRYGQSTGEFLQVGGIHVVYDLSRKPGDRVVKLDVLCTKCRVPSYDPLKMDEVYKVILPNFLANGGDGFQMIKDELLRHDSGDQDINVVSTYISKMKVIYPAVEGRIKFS

B1: 900581 (antibody, human IgG1, V domains shown)
VH: EVQLVESGGGLVKPGGSLKLSCAASGFTFSKYAMSWVRQSPEKRLEWVAEISSGGGYINYPDTVTGRFTISRDNAKNTLYLEMSSLRSGDTAMYYCARAIYYYGSSYNYYAMDYWGQGTSVTVSS
VL: DIVMTQSHKFMSTSVGDRVSITCKASQDVGTAEAWYQQKPGQSPKLLIYWASTRHTGVPDRFTGSGSGTDFTLTIGNVQSEDLADYFCQQYSSYPLTFGGGTKLEIK
B2: 900695 (antibody, V domains shown)
VH: QVQLVESGGGLVKPGGSLRLSCAASGFTFSKYAMSWVRQAPGKGLEWVAEISSGGGYINYADSVTGRFTISRDNAKNSLYLQMNSLRAEDTAVYYCARAIYYYGSSYNYYAMDYWGQGTTVTVSS
VL: DIQMTQSPSSLSASVGDRVTITCRASQDVGTAEAWYQQKPGKAPKLLIYWASTRHTGVPSRFSGSGSGTDFTLTISSLQPEDFATYYCQQYSSYPLTFGQGTKLEIK
notes: Constant regions are not restated
B3: 900694 (antibody, V domains shown)
VH: EVQLVESGGGLVKPGGSLRLSCAASGFTFSKYAMSWVRQAPGKGLEWVAEISSGGGYINYPDTVTGRFTISRDNAKNSLYLQMNSLRAEDTAVYYCARAIYYYGSSYNYYAMDYWGQGTTVTVSS
VL: DIQMTQSPSSLSASVGDRVTITCRASQDVGTAEAWYQQKPGKAPKLLIYWASTRHTGVPDRFSGSGSGTDFTLTISSLQPEDFATYYCQQYSSYPLTFGQGTKLEIK
notes: Constant regions are not restated; it was detected with anti-human Fc and captured on protein A
B4: 900696 (antibody, V domains shown)
VH: QVQLVESGGGLVKPGGSLRLSCAASGFTFSKYAMSWIRQAPGKGLEWVAEISSGGGYINYADSVKGRFTISRDNAKNSLYLQMNSLRAEDTAVYYCARAIYYYGSSYNYYAMDYWGQGTTVTVSS
VL: DIQMTQSPSSLSASVGDRVTITCRASQDVGTAEAWYQQKPGKAPKLLIYWASTLQSGVPSRFSGSGSGTDFTLTISSLQPEDFATYYCQQYSSYPLTFGQGTKLEIK
notes: as for B2
B5: 900697 (antibody, V domains shown)
VH: QVQLVESGGGLVKPGGSLRLSCAASGFTFSKYAMSWVRQAPGKGLEWVAEISSGGGYINYADSVTGRFTISRDNAKNSLYLQMNSLRAEDTAVYYCARAIYYYGSSYNYYAMDYWGQGTTVTVSS
VL: DIQMTQSPSSLSASVGDRVTITCRASQDVGTAEAWYQQKPGKAPKLLIYWASTLQSGVPSRFSGSGSGTDFTLTISSLQPEDFATYYCQQYSSYPLTFGQGTKLEIK
notes: as for B2
B6: 900698 (antibody, V domains shown)
VH: QVQLVESGGGLVKPGGSLRLSCAASGFTFSKYAMSWIRQAPGKGLEWVAEISSGGGYINYADSVKGRFTISRDNAKNSLYLQMNSLRAEDTAVYYCARAIYYYGSSYNYYAMDYWGQGTTVTVSS
VL: DIQMTQSPSSLSASVGDRVTITCRASQDVGTAEAWYQQKPGKAPKLLIYWASTRHTGVPSRFSGSGSGTDFTLTISSLQPEDFATYYCQQYSSYPLTFGQGTKLEIK
notes: as for B2

target: T1, CD73 (construct not stated) (Homo sapiens (Human)); assay: HDX-MS of the antigen and antigen-binding protein complex

binding, binds:
B1

target: monkey CD73 (Novoprotein, Cat No. C121) (monkey); assay: SPR (Biacore T200), protein A capture

binding, binds:
B1
B2
B3
B4
B5
B6
